{
  "sequences": {"note": "By UniProt entry, the sequences of proteins in these tests, tags left out.", "UniProt P18054, whole entry, looked up": "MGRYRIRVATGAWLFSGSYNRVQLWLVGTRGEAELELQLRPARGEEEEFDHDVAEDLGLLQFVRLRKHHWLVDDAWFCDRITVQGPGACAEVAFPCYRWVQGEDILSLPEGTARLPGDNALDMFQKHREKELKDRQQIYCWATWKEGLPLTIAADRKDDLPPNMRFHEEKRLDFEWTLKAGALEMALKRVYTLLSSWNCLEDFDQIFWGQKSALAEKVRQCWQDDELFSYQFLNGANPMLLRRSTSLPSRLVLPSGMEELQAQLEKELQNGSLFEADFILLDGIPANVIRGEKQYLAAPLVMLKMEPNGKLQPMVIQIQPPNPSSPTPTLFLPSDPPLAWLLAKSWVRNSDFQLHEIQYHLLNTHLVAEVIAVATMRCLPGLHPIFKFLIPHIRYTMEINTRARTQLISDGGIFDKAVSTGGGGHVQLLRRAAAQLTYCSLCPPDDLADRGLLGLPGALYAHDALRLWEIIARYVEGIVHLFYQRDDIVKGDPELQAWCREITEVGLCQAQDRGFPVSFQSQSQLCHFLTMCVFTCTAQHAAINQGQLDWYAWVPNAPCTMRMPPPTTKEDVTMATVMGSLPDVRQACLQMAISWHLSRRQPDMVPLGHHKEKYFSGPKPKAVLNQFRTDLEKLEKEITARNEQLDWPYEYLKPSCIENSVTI"},
  "source": "PubChem BioAssay AID1671190",
  "about": "(National Center for Advancing Translational Sciences (NCATS), 2021)",
  "note": "Hit rate of the full screen: of about 580,000 compounds, about 6,100 (1.1%) were called active. This list was built around the results that the source calls inconclusive (neither active nor inactive); the mix of calls is not that of the screen. Calls follow the shape of the dose curve; as a rule, active = well fitted inhibition curve with a large enough effect; inconclusive = small, poorly fitted or top-dose-only effect, or another doubt; inactive = no such curve, though single readings can be large or run the other way. Potencies beside an inconclusive call are fits to weak or partial responses and may not hold up. % is scaled to controls: 0 for no effect and ±100 for the full control effect; potency is read from the fitted curve at half-maximal effect.",
  "data": [
    {"biological_target": "Polyunsaturated fatty acid lipoxygenase ALOX12 (Homo sapiens) (UniProt P18054)", "assay": "Primary qHTS assay for inhibitors of human arachidonate 12S-lipoxygenase (ALOX12): Round 2", "conditions": "purified 12hLO, xylenol orange hydroperoxide absorbance; activity change, negative = inhibition: at 108 µM (top of the series) unless noted", "in_short": "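Purified human 12hLO (150 nM final) in 25 mM Hepes, 0.01% Triton X-100, pH 7.0 was preincubated 15 min at room temperature with compound. Then 40 uM arachidonic acid was added, 30 min. Hydroperoxide was read by Fe-XO absorbance ratio 573/405 nm.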", "values": [
      {"smiles": "COc1cc2[nH]c(=S)n(Cc3ccco3)c(=O)c2cc1OC", "Potency": "inconclusive: 22.4 µM [inhibitor, full curve, poor fit]"},
      {"smiles": "O=C(c1ccco1)N1CCN(C(=O)C2CCCc3c2[nH]c2ccc(Cl)cc32)CC1", "note": "(stereo not drawn)", "Potency": "inconclusive: 50.1 µM [inhibitor, partial curve, poor fit]"},
      {"smiles": "CCCOC(=O)C(C)n1cnc2scc(-c3ccc(C)cc3)c2c1=O", "note": "(stereo not drawn)", "Potency": "inconclusive: 50.1 µM [inhibitor, partial curve, poor fit]"},
      {"smiles": "Cc1cc(C(=O)Nc2ccc(Cl)cc2)c2c(C)nn(-c3ccccc3)c2n1", "activity change, negative = inhibition": "inactive: -23.9%"},
      {"smiles": "Cc1ccn2c(=O)nc(SCC(=O)Nc3ccc4c(c3)OCO4)nc2c1", "activity change, negative = inhibition": "inactive: -10.4%"},
      {"smiles": "FC(F)(F)c1nnc(-c2ccccc2)nc1Oc1ccc(Cl)cc1Cl", "Potency": "inconclusive: 44.7 µM [inhibitor, partial curve, poor fit]"},
      {"smiles": "O=C1/C(=C\\c2ccc(Cl)cc2)CCC1CNc1ccc(Cl)cc1", "note": "(stereo not drawn)", "Potency": "inconclusive: 44.7 µM [inhibitor, partial curve, poor fit]"},
      {"smiles": "O=C(CN1C(=O)C2CC=CCC2C1=O)Nc1nc2ccccc2s1", "note": "(stereo not drawn)", "Potency": "inconclusive: 50.1 µM [inhibitor, partial curve, poor fit]"},
      {"smiles": "Cc1ccccc1N1C(=O)CC(c2c[nH]c3ccccc23)C1=O", "note": "(stereo not drawn)", "Potency": "inactive"},
      {"smiles": "COCC(C)NCc1cccc2ccccc12", "note": "(stereo not drawn)", "Potency": "inconclusive: 3.16 µM [inhibitor, full curve]"},
      {"smiles": "O=S(=O)(CCc1ccccc1)CS(=O)(=O)CCc1ccccc1", "Potency": "inconclusive: 89.1 µM [inhibitor, partial curve, poor fit]"},
      {"smiles": "Cc1cc(NC(=O)CSc2nc3[nH]c(=O)cc(O)c3s2)ccc1Br", "Potency": "inconclusive: 56.2 µM [inhibitor, partial curve, poor fit]"},
      {"smiles": "CN1CCN(c2ncc3nc(-c4ccc(Cl)cc4)c(=O)n(Cc4ccc(F)cc4)c3n2)CC1", "Potency": "inconclusive: 35.5 µM [inhibitor, partial curve, poor fit]"},
      {"smiles": "COC(=O)c1cc(S(=O)(=O)NCC2CCN(CCc3ccc(OC)cc3)CC2)cn1C", "Potency": "inconclusive: 8.91 µM [inhibitor, partial curve, poor fit]"},
      {"smiles": "CCOc1ccc(OCC)c(NC(=O)CCCN2C(=S)NC(C)(C)CC2C)c1", "note": "(stereo not drawn)", "Potency": "inconclusive: 44.7 µM [inhibitor, partial curve]"},
      {"smiles": "Cc1sc(NC(=O)c2cccc(C#N)c2)c(C#N)c1C", "Potency": "inconclusive: 44.7 µM [inhibitor, partial curve, poor fit]"},
      {"smiles": "COc1cccc(-c2cc(NC(C)=O)c3ncc(-c4cccc(C(C)=O)c4)n3c2)c1", "activity change, negative = inhibition": "inactive: -5.38%"},
      {"smiles": "CC(C)(C)C(=O)Nc1cc(S(=O)(=O)Nc2ccc(Cl)cc2)ccc1O", "Potency": "active: 39.8 µM"},
      {"smiles": "COc1ccc(C(=O)Nc2ccc3oc(=O)ccc3c2)cc1", "activity change, negative = inhibition": "inactive: -12.4%"},
      {"smiles": "Cc1ccccc1C(OCC(O)CN1CCC(C(N)=O)CC1)c1ccccc1", "note": "(stereo not drawn)", "Potency": "inconclusive: 0.199 µM [inhibitor, full curve, poor fit]"},
      {"smiles": "O=C(NCCn1cc(SCc2ccc(C(F)(F)F)cc2)c2ccccc21)c1cccs1", "Potency": "inconclusive: 3.55 µM [inhibitor, full curve, poor fit]"},
      {"smiles": "COc1ccc(Cl)cc1NC(=O)CN1C(=O)NC(Cc2c[nH]c3ccccc23)C1=O", "note": "(stereo not drawn)", "activity change, negative = inhibition": "inactive: -24.2%"},
      {"smiles": "Cc1cc(C)nc(NC(=NCCc2c[nH]c3ccccc23)NC(=O)C(C)(C)C)n1", "Potency": "inconclusive: 112 µM [inhibitor, single point]"},
      {"smiles": "CN(C)c1cccc(Nc2nc3ccccc3nc2NS(=O)(=O)c2cccs2)c1", "Potency": "inconclusive: 7.94 µM [inhibitor, partial curve, poor fit]"},
      {"smiles": "COc1ccc(-n2nc3c(N4CCCC(C(=O)NCc5ccccc5C)C4)nnc(C)c3c2C)cc1", "note": "(stereo not drawn)", "activity change, negative = inhibition": "inactive: -28.4%"},
      {"smiles": "O=C(Cc1ccc(Cl)cc1)NCc1ccccc1Cl", "activity change, negative = inhibition": "inactive: -0.341%"},
      {"smiles": "CN1CCN(C(=S)C(=O)Nc2ccc(Br)cc2)CC1", "Potency": "inconclusive: 44.7 µM [inhibitor, partial curve, poor fit]"},
      {"smiles": "CCc1ccc(-n2ccc3nc(N4CCCC4)ncc3c2=O)cc1", "activity change, negative = inhibition": "inactive: 14.9%"},
      {"smiles": "O=C(NCCn1cccc1-c1nc(-c2ccc3c(c2)OCO3)no1)C1(c2ccccc2)CC1", "activity change, negative = inhibition": "inactive: 6.55%"},
      {"smiles": "CC(=O)c1cccc(NC(=O)c2ccc3ccccc3c2)c1", "Potency": "inconclusive: 31.6 µM [inhibitor, single point]"},
      {"smiles": "O=C(Nc1cccc(C(F)(F)F)c1)N[C@H]1[C@H](O)[C@@H](N2CCC(Cc3ccccc3)CC2)[C@@H]2OC[C@H]1O2", "Potency": "inconclusive: 56.2 µM [inhibitor, partial curve]"},
      {"smiles": "CCOC(=O)c1cc(-c2ccco2)nc2c1c(C)nn2CCC#N", "Potency": "inconclusive: 7.94 µM [inhibitor, full curve, poor fit]"},
      {"smiles": "COc1cc(NC(=S)NCCc2ccccc2)c(OC)cc1NC(=O)CC(C)C", "Potency": "inconclusive: 31.6 µM [inhibitor, partial curve, poor fit]"},
      {"smiles": "C#CCOCCOCCOCCNc1nc(N2CCN(C(=O)[C@H]([C@@H](C)CC)n3cc([C@@H](N)Cc4ccc(O)cc4)nn3)CC2)nc(N2CCN(C(=O)[C@H](Cc3ccc(O)cc3)n3cc([C@@H](N)CC(C)C)nn3)CC2)n1", "Potency": "inconclusive: 44.7 µM [inhibitor, partial curve, poor fit]"},
      {"smiles": "Cc1ccc([C@H]2C[C@H](n3cc(COC(=O)c4ccccc4)nn3)[C@@H](O)CN2Cc2cccs2)cc1", "Potency": "inconclusive: 112 µM [inhibitor, single point]"},
      {"smiles": "O=c1[nH]c(SCc2nc3c(cnn3-c3ccccc3)c(=O)[nH]2)nc2ccccc12", "Potency": "inconclusive: 44.7 µM [inhibitor, partial curve, poor fit]"},
      {"smiles": "O=C(N=Nc1c(O)[nH]c2ccccc12)c1cc(-c2cccs2)[nH]n1", "activity change, negative = inhibition": "inactive: -9.9%"},
      {"smiles": "COc1ccc(/C=N/NC(=S)Nc2ccccc2)cc1COc1ccc(Br)cc1", "Potency": "inconclusive: 39.8 µM [inhibitor, partial curve, poor fit]"},
      {"smiles": "O=C(c1ccc(Cl)nc1)N1CCC2(CC1)CCN(Cc1cccs1)c1ccccc1O2", "Potency": "inconclusive: 12.6 µM [inhibitor, full curve]"},
      {"smiles": "CCCc1cc(=O)[nH]c(SCC(=O)C(C)(C)C)n1", "Potency": "inconclusive: 79.4 µM [inhibitor, single point]"},
      {"smiles": "COc1ccccc1-c1cc(NC(C)=O)c2ncc(-c3ccccc3)n2c1", "Potency": "inconclusive: 79.4 µM [inhibitor, partial curve, poor fit]"},
      {"smiles": "CCC(=O)Oc1ccc2cc(-c3ccccc3)c(=O)oc2c1", "activity change, negative = inhibition": "inactive: 20.5%"},
      {"smiles": "Cc1ccc(-c2csc(Nc3ccc(S(N)(=O)=O)cc3)n2)cc1", "Potency": "inconclusive: 89.1 µM [inhibitor, single point]"},
      {"smiles": "CCOc1ccc(NC(=O)COc2ccccc2)c([N+](=O)[O-])c1", "activity change, negative = inhibition": "inactive: -0.707%"},
      {"smiles": "Cc1ccc(-n2ncc(C(=O)NCCN3CCc4ccccc4C3)c2C2CCN(C(=O)OC(C)(C)C)CC2)c(C)c1", "activity change, negative = inhibition": "inactive: -23.5%"},
      {"smiles": "COc1ccc(-n2c(COc3cccc(C)c3)nnc2SCC(=O)NCc2ccco2)cc1", "activity change, negative = inhibition": "inactive: -11.1%"},
      {"smiles": "Cn1c(CC2CCS(=O)(=O)C2)nnc1SCC(=O)Nc1ccc(-c2ccccc2)cc1", "note": "(stereo not drawn)", "activity change, negative = inhibition": "inactive: -5.46%"},
      {"smiles": "O=C(O)c1cc(-c2c[nH]c3ccccc23)nc2cc3ccccc3cc12", "Potency": "active: 12.6 µM"},
      {"smiles": "COc1ccccc1CNC(=O)CCS(=O)(=O)c1ccc(Cl)cc1", "Potency": "inconclusive: 39.8 µM [inhibitor, partial curve, poor fit]"},
      {"smiles": "COc1ccc(OC)c(-n2c(-c3cc(-c4ccc(F)cc4)n[nH]3)n[nH]c2=S)c1", "Potency": "inconclusive: 44.7 µM [inhibitor, partial curve, poor fit]"},
      {"smiles": "COC(=O)c1ccc(CN(C)C(=O)CCc2ncc(-c3ccccc3F)o2)cc1", "Potency": "inconclusive: 112 µM [inhibitor, partial curve, poor fit]"},
      {"smiles": "CS(=O)(=O)c1ccc(C(=O)NC(Cc2ccccc2)c2ccccc2)cc1", "note": "(stereo not drawn)", "Potency": "inconclusive: 112 µM [inhibitor, single point]"},
      {"smiles": "O=C(CCN1CCN(C(c2ccccc2)c2ccccc2)CC1)N/N=C/c1ccc(O)cc1", "Potency": "inconclusive: 31.6 µM [inhibitor, partial curve, poor fit]"},
      {"smiles": "CC(C)CCn1cnc2c1c(=O)n(Cc1ccc(C#N)cc1)c(=O)n2Cc1ccccc1", "Potency": "inconclusive: 141 µM [inhibitor, partial curve, poor fit]"},
      {"smiles": "COc1cccc(C2C(C(=O)OC(C)C)=C(C)N=c3s/c(=C\\c4ccc(C(=O)O)cc4)c(=O)n32)c1", "note": "(stereo not drawn)", "activity change, negative = inhibition": "inactive: -6.83%"},
      {"smiles": "COc1ccc(-c2nc(Nc3ccc(C)cc3)c3ccccc3n2)cc1", "Potency": "inconclusive: 35.5 µM [inhibitor, partial curve, poor fit]"},
      {"smiles": "CN(c1ccccc1C(=O)NCc1ccccn1)S(C)(=O)=O", "Potency": "inconclusive: 39.8 µM [inhibitor, single point]"},
      {"smiles": "O=C(Nc1ccc2c(c1)OCCO2)c1ccccn1", "activity change, negative = inhibition": "inactive: -4.35%"},
      {"smiles": "C[C@H](O)[C@@H]1CN2CCc3c([nH]c4ccccc34)[C@@H]2C[C@@H]1N(C)C(=O)Nc1ccccc1", "Potency": "inconclusive: 35.5 µM [inhibitor, single point]"},
      {"smiles": "CCC1CCc2c(sc(N)c2C#N)C1", "note": "(stereo not drawn)", "Potency": "inconclusive: 5.62 µM [inhibitor, full curve, poor fit]"},
      {"smiles": "COc1ccc(CNC(=O)CC[C@H]2CNC(=O)[C@@H]3[C@@H](CCN3Cc3ccc(O)cc3)N2C)cc1", "Potency": "inconclusive: 5.62 µM [inhibitor, partial curve, poor fit]"},
      {"smiles": "CCSC1=N/C(=C\\c2ccc(C(=O)O)cc2)C(=O)S1", "Potency": "inconclusive: 7.08 µM [inhibitor, full curve, poor fit]"},
      {"smiles": "COc1ccc2c(N)c(C(=O)NN)[nH]c2c1", "Potency": "inconclusive: 50.1 µM [inhibitor, partial curve, poor fit]"}
    ]}
  ]
}
